Experimental data published in publication PMC8327186.
Numbering of substitutions follows the chain as printed. Results are given in words; binding and its absence hold for the method and conditions named. Binding seen in cells or lysates may run through a third protein. Some results given as binding are weak or reduced against the parent protein; the word gives no strength.

Protein sequences, listed by entry. Tags and fused reporters are not part of them.
UniProt P31361: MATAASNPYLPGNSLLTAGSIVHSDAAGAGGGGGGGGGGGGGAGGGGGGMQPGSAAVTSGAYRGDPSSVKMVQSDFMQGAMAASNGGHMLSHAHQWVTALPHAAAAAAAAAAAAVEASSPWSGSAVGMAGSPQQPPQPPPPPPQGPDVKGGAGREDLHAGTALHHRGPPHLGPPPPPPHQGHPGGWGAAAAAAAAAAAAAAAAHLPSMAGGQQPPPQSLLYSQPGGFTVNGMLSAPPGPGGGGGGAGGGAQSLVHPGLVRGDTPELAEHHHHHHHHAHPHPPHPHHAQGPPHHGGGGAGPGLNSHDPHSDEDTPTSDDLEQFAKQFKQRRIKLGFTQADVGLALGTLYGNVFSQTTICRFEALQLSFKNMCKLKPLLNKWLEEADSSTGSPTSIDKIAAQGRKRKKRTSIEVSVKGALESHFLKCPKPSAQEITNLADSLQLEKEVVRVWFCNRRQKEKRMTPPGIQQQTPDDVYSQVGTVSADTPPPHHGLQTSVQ
UniProt P15884: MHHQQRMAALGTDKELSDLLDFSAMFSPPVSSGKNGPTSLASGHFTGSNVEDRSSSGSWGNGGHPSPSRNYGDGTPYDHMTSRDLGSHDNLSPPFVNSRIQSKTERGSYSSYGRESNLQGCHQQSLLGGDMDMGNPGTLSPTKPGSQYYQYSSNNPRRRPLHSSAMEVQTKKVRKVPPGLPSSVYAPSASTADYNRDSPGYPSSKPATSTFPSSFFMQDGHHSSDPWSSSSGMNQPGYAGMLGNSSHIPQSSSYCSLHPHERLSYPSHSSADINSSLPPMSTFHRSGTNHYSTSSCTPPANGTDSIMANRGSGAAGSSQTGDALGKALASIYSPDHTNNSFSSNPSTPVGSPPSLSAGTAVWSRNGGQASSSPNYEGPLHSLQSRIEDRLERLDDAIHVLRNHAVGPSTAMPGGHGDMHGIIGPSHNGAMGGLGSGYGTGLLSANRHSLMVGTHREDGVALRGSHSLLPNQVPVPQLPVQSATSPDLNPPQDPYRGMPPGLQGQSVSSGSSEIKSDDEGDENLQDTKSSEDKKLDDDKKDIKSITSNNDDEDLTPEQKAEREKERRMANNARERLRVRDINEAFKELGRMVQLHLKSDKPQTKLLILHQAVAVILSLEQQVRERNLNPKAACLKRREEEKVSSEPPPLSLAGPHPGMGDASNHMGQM
UniProt Q60722: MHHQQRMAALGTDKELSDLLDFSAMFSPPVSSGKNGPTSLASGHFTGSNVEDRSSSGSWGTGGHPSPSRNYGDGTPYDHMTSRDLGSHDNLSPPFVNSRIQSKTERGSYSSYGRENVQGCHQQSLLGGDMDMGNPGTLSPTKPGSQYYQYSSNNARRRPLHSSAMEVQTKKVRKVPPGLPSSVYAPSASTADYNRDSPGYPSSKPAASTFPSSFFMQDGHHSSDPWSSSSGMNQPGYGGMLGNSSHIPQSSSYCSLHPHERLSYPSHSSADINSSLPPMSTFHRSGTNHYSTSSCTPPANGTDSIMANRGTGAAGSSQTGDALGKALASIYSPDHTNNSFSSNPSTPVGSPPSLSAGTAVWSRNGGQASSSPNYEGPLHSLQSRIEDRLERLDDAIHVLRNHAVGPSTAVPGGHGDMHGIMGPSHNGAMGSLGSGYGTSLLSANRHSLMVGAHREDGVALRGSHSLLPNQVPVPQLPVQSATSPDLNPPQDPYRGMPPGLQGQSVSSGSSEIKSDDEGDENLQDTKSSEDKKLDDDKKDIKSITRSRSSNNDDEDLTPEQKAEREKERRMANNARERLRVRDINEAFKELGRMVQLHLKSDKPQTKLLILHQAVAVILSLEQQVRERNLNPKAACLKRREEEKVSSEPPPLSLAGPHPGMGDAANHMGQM
UniProt P51532: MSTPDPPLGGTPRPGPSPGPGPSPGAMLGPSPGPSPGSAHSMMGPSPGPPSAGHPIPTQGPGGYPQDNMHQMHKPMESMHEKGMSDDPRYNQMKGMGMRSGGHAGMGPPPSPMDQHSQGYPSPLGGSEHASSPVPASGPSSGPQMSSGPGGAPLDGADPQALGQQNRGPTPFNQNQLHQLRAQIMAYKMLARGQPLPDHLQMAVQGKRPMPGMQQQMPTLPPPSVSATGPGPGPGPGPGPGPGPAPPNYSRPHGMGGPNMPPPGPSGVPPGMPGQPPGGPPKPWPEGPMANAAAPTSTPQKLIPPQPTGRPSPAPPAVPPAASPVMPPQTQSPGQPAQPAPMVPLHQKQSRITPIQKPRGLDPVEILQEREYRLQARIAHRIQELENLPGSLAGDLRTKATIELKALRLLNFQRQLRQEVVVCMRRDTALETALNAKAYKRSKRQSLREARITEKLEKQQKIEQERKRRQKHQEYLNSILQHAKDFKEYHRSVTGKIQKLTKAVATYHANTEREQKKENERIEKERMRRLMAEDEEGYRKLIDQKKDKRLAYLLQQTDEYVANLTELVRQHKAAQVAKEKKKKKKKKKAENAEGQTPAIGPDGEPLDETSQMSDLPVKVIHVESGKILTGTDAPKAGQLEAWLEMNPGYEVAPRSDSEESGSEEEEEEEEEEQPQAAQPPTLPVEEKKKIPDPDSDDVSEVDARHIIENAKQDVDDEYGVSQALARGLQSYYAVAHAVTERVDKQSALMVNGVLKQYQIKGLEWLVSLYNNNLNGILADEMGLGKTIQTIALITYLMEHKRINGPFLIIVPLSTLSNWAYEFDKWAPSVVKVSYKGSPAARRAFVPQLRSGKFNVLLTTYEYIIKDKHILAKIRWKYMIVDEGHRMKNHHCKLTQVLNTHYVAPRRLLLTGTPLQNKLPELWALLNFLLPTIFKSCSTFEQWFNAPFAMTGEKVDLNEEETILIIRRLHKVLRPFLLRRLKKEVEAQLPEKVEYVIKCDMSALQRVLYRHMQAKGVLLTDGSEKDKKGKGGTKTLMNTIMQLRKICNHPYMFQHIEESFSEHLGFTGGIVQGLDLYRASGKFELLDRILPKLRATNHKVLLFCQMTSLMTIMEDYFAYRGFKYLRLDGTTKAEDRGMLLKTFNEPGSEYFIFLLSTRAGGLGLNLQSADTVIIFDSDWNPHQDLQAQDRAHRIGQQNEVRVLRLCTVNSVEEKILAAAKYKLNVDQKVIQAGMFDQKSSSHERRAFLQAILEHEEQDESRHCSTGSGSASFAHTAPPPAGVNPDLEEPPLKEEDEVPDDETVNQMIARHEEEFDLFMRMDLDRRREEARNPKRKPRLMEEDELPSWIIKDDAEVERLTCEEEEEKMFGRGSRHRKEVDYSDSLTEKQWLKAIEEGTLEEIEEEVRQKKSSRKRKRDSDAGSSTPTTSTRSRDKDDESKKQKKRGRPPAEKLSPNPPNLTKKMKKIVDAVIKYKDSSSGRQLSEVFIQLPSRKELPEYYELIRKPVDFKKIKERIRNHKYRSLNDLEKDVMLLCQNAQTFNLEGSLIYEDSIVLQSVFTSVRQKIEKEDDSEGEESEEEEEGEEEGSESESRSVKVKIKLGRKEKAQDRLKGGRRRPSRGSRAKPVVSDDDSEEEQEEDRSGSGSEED
UniProt Q60987: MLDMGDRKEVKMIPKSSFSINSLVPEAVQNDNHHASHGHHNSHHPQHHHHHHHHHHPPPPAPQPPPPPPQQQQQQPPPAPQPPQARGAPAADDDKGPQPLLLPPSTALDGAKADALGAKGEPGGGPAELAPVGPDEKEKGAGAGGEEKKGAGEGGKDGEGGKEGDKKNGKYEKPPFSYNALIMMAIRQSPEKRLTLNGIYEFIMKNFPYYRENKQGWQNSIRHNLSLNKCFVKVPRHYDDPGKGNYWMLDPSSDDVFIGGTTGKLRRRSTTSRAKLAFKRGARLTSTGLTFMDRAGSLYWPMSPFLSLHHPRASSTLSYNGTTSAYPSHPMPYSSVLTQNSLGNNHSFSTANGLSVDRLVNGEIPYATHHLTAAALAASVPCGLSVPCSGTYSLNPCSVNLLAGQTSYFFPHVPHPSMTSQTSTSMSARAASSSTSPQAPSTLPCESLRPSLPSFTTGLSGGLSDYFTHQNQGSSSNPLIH
UniProt Q7M6Y2: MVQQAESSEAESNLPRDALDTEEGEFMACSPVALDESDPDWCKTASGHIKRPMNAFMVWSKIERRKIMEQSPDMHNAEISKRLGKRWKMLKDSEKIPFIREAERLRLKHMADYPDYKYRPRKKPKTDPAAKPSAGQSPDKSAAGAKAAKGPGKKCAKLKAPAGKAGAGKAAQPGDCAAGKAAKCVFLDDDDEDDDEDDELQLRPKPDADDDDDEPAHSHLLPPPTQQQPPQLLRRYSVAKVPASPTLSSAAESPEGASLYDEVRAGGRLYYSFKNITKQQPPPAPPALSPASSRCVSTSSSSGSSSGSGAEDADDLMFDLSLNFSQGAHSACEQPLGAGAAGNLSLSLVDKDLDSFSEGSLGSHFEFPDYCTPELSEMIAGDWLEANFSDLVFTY
UniProt Q3TKT4: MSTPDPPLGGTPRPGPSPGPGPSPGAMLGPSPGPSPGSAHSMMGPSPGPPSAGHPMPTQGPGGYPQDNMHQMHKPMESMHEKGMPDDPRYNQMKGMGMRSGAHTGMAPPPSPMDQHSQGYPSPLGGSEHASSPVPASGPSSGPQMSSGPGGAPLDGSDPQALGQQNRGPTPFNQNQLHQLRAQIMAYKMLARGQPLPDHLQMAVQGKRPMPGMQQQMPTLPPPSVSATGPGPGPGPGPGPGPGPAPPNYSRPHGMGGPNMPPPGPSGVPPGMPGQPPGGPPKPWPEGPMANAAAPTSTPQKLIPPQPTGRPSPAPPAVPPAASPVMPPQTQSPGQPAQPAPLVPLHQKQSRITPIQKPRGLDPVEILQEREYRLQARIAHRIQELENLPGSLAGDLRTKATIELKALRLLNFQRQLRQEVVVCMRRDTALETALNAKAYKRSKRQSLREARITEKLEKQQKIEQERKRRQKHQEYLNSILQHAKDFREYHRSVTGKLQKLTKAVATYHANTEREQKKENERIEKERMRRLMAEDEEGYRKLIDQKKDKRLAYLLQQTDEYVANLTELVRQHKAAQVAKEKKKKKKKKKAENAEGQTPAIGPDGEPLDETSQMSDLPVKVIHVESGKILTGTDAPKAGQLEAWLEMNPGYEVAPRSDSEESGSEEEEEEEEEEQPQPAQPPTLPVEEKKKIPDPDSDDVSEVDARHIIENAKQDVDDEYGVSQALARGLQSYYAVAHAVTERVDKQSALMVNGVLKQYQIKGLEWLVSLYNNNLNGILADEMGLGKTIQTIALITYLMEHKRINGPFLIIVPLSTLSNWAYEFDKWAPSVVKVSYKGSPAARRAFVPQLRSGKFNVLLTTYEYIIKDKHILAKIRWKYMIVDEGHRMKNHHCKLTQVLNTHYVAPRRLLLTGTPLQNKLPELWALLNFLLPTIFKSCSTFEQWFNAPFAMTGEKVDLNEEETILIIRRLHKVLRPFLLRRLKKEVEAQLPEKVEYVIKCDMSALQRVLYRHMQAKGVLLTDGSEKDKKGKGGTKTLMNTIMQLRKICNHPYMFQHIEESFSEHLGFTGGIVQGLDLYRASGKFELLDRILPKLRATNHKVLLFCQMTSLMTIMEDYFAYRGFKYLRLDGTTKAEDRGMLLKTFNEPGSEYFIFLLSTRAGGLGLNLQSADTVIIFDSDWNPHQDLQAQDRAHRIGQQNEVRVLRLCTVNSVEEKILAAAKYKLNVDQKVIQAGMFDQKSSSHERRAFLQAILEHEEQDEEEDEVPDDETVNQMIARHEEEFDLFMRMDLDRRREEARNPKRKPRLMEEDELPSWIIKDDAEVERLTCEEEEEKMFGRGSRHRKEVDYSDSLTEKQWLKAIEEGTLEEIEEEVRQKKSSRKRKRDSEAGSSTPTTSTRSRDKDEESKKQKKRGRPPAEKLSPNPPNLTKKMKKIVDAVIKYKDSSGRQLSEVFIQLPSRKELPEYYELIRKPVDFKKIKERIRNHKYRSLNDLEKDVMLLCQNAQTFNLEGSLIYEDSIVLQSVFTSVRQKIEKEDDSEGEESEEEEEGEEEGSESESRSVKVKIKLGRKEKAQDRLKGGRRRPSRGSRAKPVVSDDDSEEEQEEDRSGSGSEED

B1: POU3F3 (BRN1), overexpressed from pCMV5 rBrn1 (protein, UniProt Q63262 1-497)
chain: MATAASNPYLPGNSLLAAGSIVHSDAAGAGGGGGGGGGGGGGAGGGGGGMQPGSAAVTSGAYRGDPSSVKMVQSDFMQGAMAASNGGHMLSHAHQWVTALPHAAAAAAAAAAAAVEASSPWSGSAVGMAGSPQQPPRPPPPPPQGPDVKGGVGREDLHAGTALHHRGPPHLGPPPPPPHQGHPGGWGAAAAAAAAAAAAAAAAHLPSMAGGQQPPPQSLLYSQPGGFTVNGMLSAPPGPGGGGGGAGGGAQSLVHPGLVRGDTPELAEHHHHHHHHAHPHPPHPHHAQGPPHHGGGGAGPGLNSHDPHSDEDTPTSDDLEQFAKQFKQRRIKLGFTQADVGLALGTLYGNVFSQTTICRFEALQLSFKNMCKLKPLLNKWLEEADSSTGSPTSIDKIAAQGRKRKKRTSIEVSVKGALESHFLKCPKPSAQEITNLADSLQLEKEVVRVWFCNRRQKEKRMTPPGIQQQTPDDVYSQVGTVSADTPPPHHGLQTSVQ
B2: POU3F3 (BRN1), endogenous in differentiated mouse neural stem cells (protein, UniProt P31361 1-497)
chain: B1 chain with A17T, R137Q, V152A

Key:
[1] = molecular target: Transcription factor 4, long isoform (TCF4B), overexpressed from CAG-TCF4-IRES-GFP (UniProt P15884); experiment: co-IP; HEK 293T cell extract after co-overexpression of TCF4 and one partner; precipitated with mouse monoclonal anti-TCF4 (sc393407) and Protein A agarose beads in TEN-Buffer (10 mM Tris pH 7.4, 50 mM NaCl, NP40), 4°C overnight; controls: anti-BrdU isotype IgG, beads alone; western blot
[2] = molecular target: TCF4, endogenous in differentiated mouse neural stem cells (isoform not told apart) (mouse (endogenous in neural stem cells from E14.5 neocortex)) (UniProt Q60722); experiment: proximity ligation; fixed 6 day differentiated neural stem cells derived from E14.5 mouse neocortices; mouse monoclonal anti-TCF4 with rabbit anti-BRN1, anti-BRG1 or anti-FOXG1

Molecule | binding [1] | binding [2]
SMARCA4 (BRG1), overexpressed from pBJ5-hBRG1 (from UniProt P51532 1-1647) | binds | –
FOXG1, overexpressed from CAG-Foxg1-IRES-RFP (from UniProt Q60987 1-481) | binds | –
SOX11, overexpressed from CAG-Sox11-IRES-GFP (from UniProt Q7M6Y2 1-395) | binds | –
SMARCA4 (BRG1), endogenous in differentiated mouse neural stem cells (from UniProt Q3TKT4 1-1613) | – | binds
FOXG1, endogenous in differentiated mouse neural stem cells (from UniProt Q60987 1-481) | – | binds
CUX1 (p200 CUX1), overexpressed from pXJ42-p200 CUX1 (from UniProt P39880 1-1505) | binds | –
B1 | binds | –
B2 | – | binds
